PubChem BioAssay AID1224830, NIAID | 2016
The deposit covers about 18,000 reagents; this is a part drawn at random. Over the whole deposit, about 2,900 (16%) were called active. 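Calls are made per well; low scores hint the gene aids the LPS response, high scores that it dampens it.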 Repeated entries: four replicate wells of each siRNA pool.

Screen: 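Genes whose knock-down alters the TNF-alpha reporter response to LPS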 (primary screen)
Cells: human THP-1 monocytic leukaemia cells, TNF dual-luciferase reporter clone, PMA-differentiated to macrophage-like cells
Reagent: siRNA pool against human genes, 50 nM
Duration: LPS for 4 h, given about 3 days after siRNA transfection
Conditions: bacterial LPS (TLR4 ligand), 10 ng/ml
Measurement: 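Ratio of firefly to renilla light, scaled to the plate median and expressed as a robust z-score per replicate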
Direction: TNF reporter robust z-score: higher = stronger TNF reporter response to LPS
Hit rule: 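Each well counts as active if its z-score is over 2.8 or under -1.5; controls are left without a call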

Target gene,TNF reporter robust z-score,outcome
PPIL4,0.34,inactive
PPIL4,0.56,inactive
PPIL4,0.51,inactive
PPIL4,1.06,inactive
GRK7,0.65,inactive
GRK7,-0.73,inactive
GRK7,-0.39,inactive
GRK7,0.97,inactive
RPS23,0.76,inactive
RPS23,1.81,inactive
RPS23,0.79,inactive
RPS23,1.6,inactive
CABLES2,-0.75,inactive
CABLES2,-0.59,inactive
CABLES2,-0.72,inactive
CABLES2,-1.34,inactive
ADA,-0.66,inactive
ADA,-0.68,inactive
ADA,-0.3,inactive
ZNF442,-0.91,inactive
ZNF442,-1.08,inactive
ZNF442,-1.03,inactive
ZNF442,0.2,inactive
JOSD2,2.01,inactive
JOSD2,1.87,inactive
JOSD2,0.5,inactive
JOSD2,2.71,inactive
OR2D3,-0.71,inactive
OR2D3,-0.76,inactive
OR2D3,-0.35,inactive
GSTT1,-0.96,inactive
GSTT1,-0.35,inactive
GSTT1,-0.2,inactive
HLF,0.77,inactive
HLF,2.68,inactive
HLF,2.52,inactive
HLF,1.36,inactive
B4GALNT2,1.05,inactive
B4GALNT2,-0.07,inactive
B4GALNT2,-0.09,inactive
B4GALNT2,1.92,inactive
C14orf180,-1.03,inactive
C14orf180,-0.74,inactive
C14orf180,-1.22,inactive
C14orf180,-0.87,inactive
CEP57L1,-1.88,active
CEP57L1,-1.09,inactive
CEP57L1,-1.4,inactive
CEP57L1,-1.12,inactive
SLC9A1,0.05,inactive
SLC9A1,-1.21,inactive
SLC9A1,0.16,inactive
SLC9A1,1.38,inactive
SLC15A4,-0.13,inactive
SLC15A4,0.44,inactive
SLC15A4,-0.29,inactive
SLC15A4,-0.48,inactive
LCE1B,,inactive
LCE1B,-0.25,inactive
LCE1B,-0.5,inactive
LCE1B,-0.33,inactive
CTSV,0.04,inactive
CTSV,-0.77,inactive
CTSV,-0.84,inactive
CTSV,0.83,inactive
OR8K1,1.14,inactive
OR8K1,0.26,inactive
OR8K1,7.98,active
OR8K1,3.2,active
PHKB,-1.63,active
PHKB,-0.95,inactive
PHKB,-0.71,inactive
PHKB,-1.02,inactive
DEFB125,-0.46,inactive
DEFB125,-0.27,inactive
DEFB125,-0.85,inactive
DEFB125,-0.03,inactive
XRCC3,-0.44,inactive
XRCC3,-0.48,inactive
XRCC3,0.96,inactive
XRCC3,0.4,inactive
SPRYD4,-0.77,inactive
SPRYD4,-1.41,inactive
SPRYD4,-0.37,inactive
SPRYD4,-0.42,inactive
CYTH4,-0.52,inactive
CYTH4,0.59,inactive
CYTH4,-1.15,inactive
CYTH4,-0.19,inactive
FHOD1,1.6,inactive
FHOD1,2.73,inactive
FHOD1,1.62,inactive
FHOD1,1.97,inactive
FANCC,-0.72,inactive
FANCC,-0.19,inactive
FANCC,0.25,inactive
FANCC,-0.63,inactive
ATP5ME,-0.9,inactive
ATP5ME,0.24,inactive
ATP5ME,-1.03,inactive
ATP5ME,0.55,inactive
CAPSL,-0.13,inactive
CAPSL,-1.3,inactive
CAPSL,0.39,inactive
CAPSL,1.39,inactive
PPP2R2A,1.25,inactive
PPP2R2A,0.81,inactive
PPP2R2A,0.48,inactive
PPP2R2A,1.08,inactive
GARRE1,2.36,inactive
GARRE1,3.92,active
GARRE1,-0.75,inactive
GARRE1,-0.26,inactive
LAMA1,-0.57,inactive
LAMA1,-0.17,inactive
LAMA1,-0.02,inactive
LAMA1,-0.13,inactive
RNASEH2A,-0.41,inactive
RNASEH2A,-0.02,inactive
RNASEH2A,0.96,inactive
RNASEH2A,2.96,active
TTK,-0.73,inactive
TTK,-0.61,inactive
TTK,-0.19,inactive
TTK,-0.88,inactive
CAAP1,-0.41,inactive
CAAP1,-0.49,inactive
CAAP1,-0.65,inactive
CAAP1,-0.05,inactive
RALGPS2,-1.17,inactive
RALGPS2,0.14,inactive
RALGPS2,-0.19,inactive
RALGPS2,-0.02,inactive
RNF38,1.63,inactive
RNF38,3.51,active
RNF38,5.37,active
RNF38,3.42,active
CYB5R1,-1.6,active
CYB5R1,-1.04,inactive
CYB5R1,-1.45,inactive
CYB5R1,-1.11,inactive

Reformatted: 18 of the entries above.
Target gene	TNF reporter robust z-score	outcome
SLC9A1	1.38	inactive
SLC15A4	-0.13	inactive
SLC15A4	0.44	inactive
SLC15A4	-0.29	inactive
SLC15A4	-0.48	inactive
LCE1B		inactive
LCE1B	-0.25	inactive
LCE1B	-0.5	inactive
LCE1B	-0.33	inactive
CTSV	0.04	inactive
CTSV	-0.77	inactive
CTSV	-0.84	inactive
CTSV	0.83	inactive
OR8K1	1.14	inactive
OR8K1	0.26	inactive
OR8K1	7.98	active
OR8K1	3.2	active
PHKB	-1.63	active
